PubChem BioAssay AID686943, Drosophila RNAi Screening Center, 2013
In all, the deposit lists about 23,000 reagents; below is an unselected part of those that have a named target and a result. 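Extra replicates exist only for a retested subset of genes; insulin dose and duration not given; both raised and lowered dpERK matter.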 Names joined by + are all predicted targets of the reagent. Further read-outs or replicates are left out here. No sequences are given here. The record does not give: the amount of reagent, the time to read-out.

Test: 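Search across the genome for regulators of signalling from receptor tyrosine kinase to ERK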 (primary screen)
Cells: Drosophila S2R+ haemocyte-like cells expressing YFP-tagged ERK (Rolled)
Knock-down reagent: long dsRNA against Drosophila genes
Challenge: insulin stimulation versus unstimulated cells; dose and duration not given
Measured: 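Per-plate z-scores of phospho-ERK immunostaining normalised to YFP-tagged ERK, measured with and without insulin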
Scale: replicate 1, z-score of dpERK with insulin: higher = more active ERK per ERK-YFP after insulin

| predicted target | DRSC id | replicate 1, z-score of dpERK with insulin |
| --- | --- | --- |
| Uhg3 (U snoRNA host gene 3) | DRSC22963 | 0.56 |
| CG14598 | DRSC12541 | 1.04 |
| CG5556 | DRSC00687 | 0.83 |
| CG8788 | DRSC07267 | 0.47 |
| spartin | DRSC12187 | 1.05 |
| CG33725 | DRSC09183 | 0.29 |
| RhoGAP93B (Rho GTPase activating protein at 93B) | DRSC15488 | 0.33 |
| CG12929 | DRSC06242 | -1.2 |
| CG30161 | DRSC22141 | 3.14 |
| CG1571 | DRSC18068 | 0.78 |
| Ipp (Inositol polyphosphate 1-phosphatase) | DRSC16718 | -1.85 |
| CG8289 | DRSC20101 | 0.04 |
| CG9168 | DRSC08633 | -0.01 |
| rtp (retinophilin) | DRSC12132 | -0.26 |
| TpnC4 (Troponin C isoform 4) | DRSC04856 | 0.26 |
| Taf12 (TBP-associated factor 12) | DRSC16879 | 2.15 |
| Ptip (PAX transcription activation domain interacting protein) | DRSC10660 | -0.13 |
| Ptip (PAX transcription activation domain interacting protein) | DRSC11048 | 0.89 |
| Cks85A (Cyclin-dependent kinase subunit 85A) | DRSC16562 | -0.3 |
| CheB42a (Chemosensory protein B 42a) | DRSC22881 | 0.85 |
| Culd (CUB and LDLa domain) | DRSC10262 | -0.1 |
| CG14882 | DRSC15006 | 0.09 |
| CG3408 | DRSC10360 | 0.34 |
| dpr9 (defective proboscis extension response 9) | DRSC14534 | -1.03 |
| dpr9 (defective proboscis extension response 9) | DRSC14985 | -0.78 |
| dpr9 (defective proboscis extension response 9) | DRSC14986 | 0.69 |
| CG43349 | DRSC00039 | 0.25 |
| Regnase-1 (Regnase 1) | DRSC14278 | -0.11 |
| Cpr78Cb (Cuticular protein 78Cb) | DRSC11847 | 0.5 |
| unc-13 | DRSC17192 | -0.11 |
| unc-13 | DRSC17193 | 0.13 |
| unc-13 | DRSC17223 | -0.21 |
| Drsl6 (Drosomycin-like 6) | DRSC08161 | 0.76 |
| CG13727 | DRSC10055 | 0.01 |
| CG17707 | DRSC20650 | -0.66 |
| brk (brinker) | DRSC18745 | -1.55 |
| Sgs1 (Salivary gland secretion 1) | DRSC00787 | 0.45 |
| Sgs1 (Salivary gland secretion 1) | DRSC00848 | -0.94 |
| otk (off-track) | DRSC07658 | -0.55 |
| upd1 (unpaired 1) | DRSC20358 | 0.61 |

Sorted by “replicate 1, z-score of dpERK with insulin” (highest first): some entries from above
| predicted target | DRSC id | replicate 1, z-score of dpERK with insulin |
| --- | --- | --- |
| Ptip (PAX transcription activation domain interacting protein) | DRSC11048 | 0.89 |
| CheB42a (Chemosensory protein B 42a) | DRSC22881 | 0.85 |
| dpr9 (defective proboscis extension response 9) | DRSC14986 | 0.69 |
| CG3408 | DRSC10360 | 0.34 |
| CG14882 | DRSC15006 | 0.09 |
| Culd (CUB and LDLa domain) | DRSC10262 | -0.1 |
| Cks85A (Cyclin-dependent kinase subunit 85A) | DRSC16562 | -0.3 |
| dpr9 (defective proboscis extension response 9) | DRSC14985 | -0.78 |
| dpr9 (defective proboscis extension response 9) | DRSC14534 | -1.03 |

The listing continues.
| predicted target | DRSC id | replicate 1, z-score of dpERK with insulin |
| --- | --- | --- |
| CG6707 | DRSC10697 | 0.75 |
| nes (nessy) | DRSC11375 | 0.3 |
| Doa (Darkener of apricot) | DRSC13892 | -0.39 |
| Doa (Darkener of apricot) | DRSC13893 | 0.49 |
| Doa (Darkener of apricot) | DRSC13895 | 0.31 |
| Doa (Darkener of apricot) | DRSC13896 | 1.02 |
| Doa (Darkener of apricot) | DRSC13897 | -0.1 |
| Doa (Darkener of apricot) | DRSC16650 | -1.61 |
| Tmem63 (Transmembrane protein 63) | DRSC06063 | 0.2 |
| CG2906 | DRSC06841 | 0.63 |
| eloF (elongase F) | DRSC15162 | 0.32 |
| Nrd1 (Nardilysin) | DRSC19830 | -0.44 |
| spn-F | DRSC14475 | -0.41 |
| CG32755 | DRSC18397 | 0.15 |
| pyd3 | DRSC15459 | 1.23 |
| pyd3 | DRSC21640 | 0.15 |
| CG11693 | DRSC14353 | 0.09 |
| CG32376 | DRSC22754 | 0.69 |
| chas (chascon) | DRSC19508 | 0.58 |
| chas (chascon) | DRSC19509 | 0.45 |
| CalpB (Calpain-B) | DRSC11109 | -0.49 |
| Spn28Da (Serpin 28Da) | DRSC02162 | -0.09 |
| Porin2 | DRSC02584 | 1.08 |
| Fign (Fidgetin) | DRSC00592 | -0.11 |
| spir (spire) | DRSC03619 | 0.49 |
| CG34434 | DRSC18134 | -2 |
| CG3457 | DRSC18509 | 0.36 |
| asRNA:CR43159 + yellow-k | DRSC10851 | 0.38 |
| CG2926 | DRSC12321 | -1.57 |
| DUBAI (Deubiquitinating apoptotic inhibitor) | DRSC07281 | -0.21 |
| CG32213 + CG12519 + 825-Oak + 1 more | DRSC09615 | 0.37 |
| CG10903 | DRSC14281 | -0.32 |
| CG8950 | DRSC07300 | 0.19 |
